# This is one part of the list. The data scatter; read single values as rough.
# Sequences of proteins named here, by UniProt entry; tags and fusion partners are left off. A change or cut given only in a name is not applied to a line headed by its entry. Residues count along the entry.
# UniProt O95544, 78-97: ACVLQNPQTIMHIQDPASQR
# UniProt Q14872: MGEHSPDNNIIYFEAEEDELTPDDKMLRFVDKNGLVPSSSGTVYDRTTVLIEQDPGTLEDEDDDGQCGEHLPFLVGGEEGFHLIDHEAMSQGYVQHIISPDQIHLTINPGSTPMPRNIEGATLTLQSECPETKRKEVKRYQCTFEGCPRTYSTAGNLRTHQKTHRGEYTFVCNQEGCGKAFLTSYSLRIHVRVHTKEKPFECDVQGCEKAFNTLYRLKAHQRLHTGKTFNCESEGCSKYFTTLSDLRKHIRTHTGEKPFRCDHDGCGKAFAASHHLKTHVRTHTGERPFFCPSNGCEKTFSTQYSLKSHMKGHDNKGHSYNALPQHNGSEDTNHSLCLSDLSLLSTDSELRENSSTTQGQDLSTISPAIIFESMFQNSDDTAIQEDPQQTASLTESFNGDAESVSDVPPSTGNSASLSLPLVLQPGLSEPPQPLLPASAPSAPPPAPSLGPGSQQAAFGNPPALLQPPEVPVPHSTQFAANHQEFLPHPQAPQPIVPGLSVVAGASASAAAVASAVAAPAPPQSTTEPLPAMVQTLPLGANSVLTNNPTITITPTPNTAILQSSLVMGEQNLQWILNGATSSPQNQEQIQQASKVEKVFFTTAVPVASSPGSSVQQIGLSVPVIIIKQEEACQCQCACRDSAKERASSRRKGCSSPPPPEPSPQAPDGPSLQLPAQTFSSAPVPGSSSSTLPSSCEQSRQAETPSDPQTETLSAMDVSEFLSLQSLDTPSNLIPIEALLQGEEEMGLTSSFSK
# UniProt O94832: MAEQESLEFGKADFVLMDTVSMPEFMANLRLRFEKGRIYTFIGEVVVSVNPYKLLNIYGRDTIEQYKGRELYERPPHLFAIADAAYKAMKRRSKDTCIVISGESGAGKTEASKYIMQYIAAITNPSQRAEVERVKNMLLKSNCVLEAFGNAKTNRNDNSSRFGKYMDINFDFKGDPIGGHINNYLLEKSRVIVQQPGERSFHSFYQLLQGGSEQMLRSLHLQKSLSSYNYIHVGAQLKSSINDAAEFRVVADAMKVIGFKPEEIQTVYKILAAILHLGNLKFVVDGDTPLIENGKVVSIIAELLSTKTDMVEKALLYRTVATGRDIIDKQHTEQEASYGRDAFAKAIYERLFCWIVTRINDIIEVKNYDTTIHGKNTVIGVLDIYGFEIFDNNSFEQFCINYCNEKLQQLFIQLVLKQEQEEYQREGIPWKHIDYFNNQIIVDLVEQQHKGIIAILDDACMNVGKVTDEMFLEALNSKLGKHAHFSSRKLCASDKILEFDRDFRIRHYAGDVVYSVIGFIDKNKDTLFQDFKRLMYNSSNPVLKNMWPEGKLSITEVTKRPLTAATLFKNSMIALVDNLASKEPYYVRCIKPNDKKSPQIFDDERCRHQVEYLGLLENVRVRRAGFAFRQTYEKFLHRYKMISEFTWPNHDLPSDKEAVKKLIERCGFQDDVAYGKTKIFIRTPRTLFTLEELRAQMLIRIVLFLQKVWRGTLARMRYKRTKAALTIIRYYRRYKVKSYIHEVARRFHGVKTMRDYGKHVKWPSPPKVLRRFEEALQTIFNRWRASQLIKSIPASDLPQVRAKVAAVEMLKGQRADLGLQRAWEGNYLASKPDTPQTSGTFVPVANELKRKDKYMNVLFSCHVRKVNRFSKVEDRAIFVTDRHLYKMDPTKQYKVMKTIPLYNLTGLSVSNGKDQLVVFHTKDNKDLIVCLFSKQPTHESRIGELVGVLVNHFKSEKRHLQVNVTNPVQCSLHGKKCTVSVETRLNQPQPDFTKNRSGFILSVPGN
# UniProt Q6N069: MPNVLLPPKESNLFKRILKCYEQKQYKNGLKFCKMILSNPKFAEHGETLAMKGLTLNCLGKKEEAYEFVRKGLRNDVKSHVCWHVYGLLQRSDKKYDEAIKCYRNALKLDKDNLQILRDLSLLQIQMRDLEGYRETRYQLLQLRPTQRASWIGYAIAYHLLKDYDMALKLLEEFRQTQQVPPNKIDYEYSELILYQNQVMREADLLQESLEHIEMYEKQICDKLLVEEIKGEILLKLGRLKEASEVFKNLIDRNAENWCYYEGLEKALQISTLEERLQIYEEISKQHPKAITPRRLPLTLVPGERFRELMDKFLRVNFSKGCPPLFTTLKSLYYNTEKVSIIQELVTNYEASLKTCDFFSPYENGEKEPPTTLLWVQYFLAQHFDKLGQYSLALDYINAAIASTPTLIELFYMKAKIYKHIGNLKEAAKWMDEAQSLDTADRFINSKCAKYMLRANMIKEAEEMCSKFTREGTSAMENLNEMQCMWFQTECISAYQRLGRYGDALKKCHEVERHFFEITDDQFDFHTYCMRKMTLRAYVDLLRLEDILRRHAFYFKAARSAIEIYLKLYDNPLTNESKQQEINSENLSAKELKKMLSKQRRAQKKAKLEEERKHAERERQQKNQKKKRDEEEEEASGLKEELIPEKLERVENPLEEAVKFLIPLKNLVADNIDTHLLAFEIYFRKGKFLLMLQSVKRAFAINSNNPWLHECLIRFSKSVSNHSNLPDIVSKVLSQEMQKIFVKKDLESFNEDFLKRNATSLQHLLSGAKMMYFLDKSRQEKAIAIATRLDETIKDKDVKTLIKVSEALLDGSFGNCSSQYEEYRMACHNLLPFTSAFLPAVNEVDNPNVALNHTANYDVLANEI
# UniProt P52701: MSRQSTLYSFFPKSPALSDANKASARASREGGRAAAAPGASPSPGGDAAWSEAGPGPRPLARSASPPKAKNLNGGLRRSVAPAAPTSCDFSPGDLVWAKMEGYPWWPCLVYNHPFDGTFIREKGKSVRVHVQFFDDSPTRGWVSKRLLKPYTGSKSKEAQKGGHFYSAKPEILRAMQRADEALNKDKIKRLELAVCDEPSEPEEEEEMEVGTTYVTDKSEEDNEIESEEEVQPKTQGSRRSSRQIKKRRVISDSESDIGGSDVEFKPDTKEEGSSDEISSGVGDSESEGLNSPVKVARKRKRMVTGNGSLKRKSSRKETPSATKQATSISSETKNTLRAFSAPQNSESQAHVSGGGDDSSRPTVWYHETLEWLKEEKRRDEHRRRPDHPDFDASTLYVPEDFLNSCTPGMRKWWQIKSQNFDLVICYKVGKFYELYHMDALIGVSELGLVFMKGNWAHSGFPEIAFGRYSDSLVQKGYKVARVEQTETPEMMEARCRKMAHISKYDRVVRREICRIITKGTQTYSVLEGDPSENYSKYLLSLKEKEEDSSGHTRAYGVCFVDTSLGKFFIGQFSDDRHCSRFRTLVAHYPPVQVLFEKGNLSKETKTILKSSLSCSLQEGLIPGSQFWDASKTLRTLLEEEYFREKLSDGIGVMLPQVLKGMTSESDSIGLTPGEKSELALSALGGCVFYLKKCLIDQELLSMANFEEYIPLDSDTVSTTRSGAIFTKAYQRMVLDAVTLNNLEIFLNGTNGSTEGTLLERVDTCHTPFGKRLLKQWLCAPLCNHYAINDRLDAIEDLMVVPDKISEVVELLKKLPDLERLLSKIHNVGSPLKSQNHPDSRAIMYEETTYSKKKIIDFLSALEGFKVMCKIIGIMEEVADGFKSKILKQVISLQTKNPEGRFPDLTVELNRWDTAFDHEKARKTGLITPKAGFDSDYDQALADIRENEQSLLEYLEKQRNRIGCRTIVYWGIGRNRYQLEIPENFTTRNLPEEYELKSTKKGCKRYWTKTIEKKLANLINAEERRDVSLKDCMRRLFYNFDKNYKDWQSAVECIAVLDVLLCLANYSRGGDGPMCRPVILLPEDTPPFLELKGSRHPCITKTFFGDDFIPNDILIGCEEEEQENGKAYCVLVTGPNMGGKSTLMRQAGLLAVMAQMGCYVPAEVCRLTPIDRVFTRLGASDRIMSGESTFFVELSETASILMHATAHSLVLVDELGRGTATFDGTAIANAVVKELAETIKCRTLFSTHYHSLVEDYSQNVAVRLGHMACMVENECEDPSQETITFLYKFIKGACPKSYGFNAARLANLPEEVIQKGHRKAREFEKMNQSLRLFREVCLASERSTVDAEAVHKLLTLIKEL
# UniProt Q12965: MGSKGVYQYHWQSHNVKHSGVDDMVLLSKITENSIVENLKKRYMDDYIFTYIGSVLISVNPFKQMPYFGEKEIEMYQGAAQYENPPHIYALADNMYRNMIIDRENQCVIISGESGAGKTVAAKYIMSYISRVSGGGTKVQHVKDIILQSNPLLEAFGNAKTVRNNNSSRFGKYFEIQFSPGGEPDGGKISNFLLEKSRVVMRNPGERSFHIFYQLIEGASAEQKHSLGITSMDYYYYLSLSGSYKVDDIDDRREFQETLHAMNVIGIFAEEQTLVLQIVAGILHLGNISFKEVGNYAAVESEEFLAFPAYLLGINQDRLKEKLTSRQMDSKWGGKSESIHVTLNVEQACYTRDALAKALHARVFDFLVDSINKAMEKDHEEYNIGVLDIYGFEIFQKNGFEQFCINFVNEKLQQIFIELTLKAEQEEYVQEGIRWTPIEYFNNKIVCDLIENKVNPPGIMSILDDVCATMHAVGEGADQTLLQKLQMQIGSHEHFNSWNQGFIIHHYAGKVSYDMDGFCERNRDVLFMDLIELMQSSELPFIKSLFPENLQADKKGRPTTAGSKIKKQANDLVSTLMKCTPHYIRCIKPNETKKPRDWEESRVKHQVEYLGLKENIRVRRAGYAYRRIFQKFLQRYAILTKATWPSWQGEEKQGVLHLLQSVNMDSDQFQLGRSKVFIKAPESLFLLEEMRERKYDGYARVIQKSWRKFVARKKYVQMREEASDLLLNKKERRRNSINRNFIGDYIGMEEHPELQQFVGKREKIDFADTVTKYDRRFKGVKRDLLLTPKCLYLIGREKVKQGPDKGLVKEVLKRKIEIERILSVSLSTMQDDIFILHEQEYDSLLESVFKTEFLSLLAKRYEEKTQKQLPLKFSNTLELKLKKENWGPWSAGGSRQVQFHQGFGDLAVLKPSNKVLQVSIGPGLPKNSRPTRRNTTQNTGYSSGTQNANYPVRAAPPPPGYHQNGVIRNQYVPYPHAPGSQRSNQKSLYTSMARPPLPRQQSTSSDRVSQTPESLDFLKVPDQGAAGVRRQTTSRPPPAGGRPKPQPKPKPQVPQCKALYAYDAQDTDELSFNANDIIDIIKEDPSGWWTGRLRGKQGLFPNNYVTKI
# UniProt Q9UM54, whole entry, looked up: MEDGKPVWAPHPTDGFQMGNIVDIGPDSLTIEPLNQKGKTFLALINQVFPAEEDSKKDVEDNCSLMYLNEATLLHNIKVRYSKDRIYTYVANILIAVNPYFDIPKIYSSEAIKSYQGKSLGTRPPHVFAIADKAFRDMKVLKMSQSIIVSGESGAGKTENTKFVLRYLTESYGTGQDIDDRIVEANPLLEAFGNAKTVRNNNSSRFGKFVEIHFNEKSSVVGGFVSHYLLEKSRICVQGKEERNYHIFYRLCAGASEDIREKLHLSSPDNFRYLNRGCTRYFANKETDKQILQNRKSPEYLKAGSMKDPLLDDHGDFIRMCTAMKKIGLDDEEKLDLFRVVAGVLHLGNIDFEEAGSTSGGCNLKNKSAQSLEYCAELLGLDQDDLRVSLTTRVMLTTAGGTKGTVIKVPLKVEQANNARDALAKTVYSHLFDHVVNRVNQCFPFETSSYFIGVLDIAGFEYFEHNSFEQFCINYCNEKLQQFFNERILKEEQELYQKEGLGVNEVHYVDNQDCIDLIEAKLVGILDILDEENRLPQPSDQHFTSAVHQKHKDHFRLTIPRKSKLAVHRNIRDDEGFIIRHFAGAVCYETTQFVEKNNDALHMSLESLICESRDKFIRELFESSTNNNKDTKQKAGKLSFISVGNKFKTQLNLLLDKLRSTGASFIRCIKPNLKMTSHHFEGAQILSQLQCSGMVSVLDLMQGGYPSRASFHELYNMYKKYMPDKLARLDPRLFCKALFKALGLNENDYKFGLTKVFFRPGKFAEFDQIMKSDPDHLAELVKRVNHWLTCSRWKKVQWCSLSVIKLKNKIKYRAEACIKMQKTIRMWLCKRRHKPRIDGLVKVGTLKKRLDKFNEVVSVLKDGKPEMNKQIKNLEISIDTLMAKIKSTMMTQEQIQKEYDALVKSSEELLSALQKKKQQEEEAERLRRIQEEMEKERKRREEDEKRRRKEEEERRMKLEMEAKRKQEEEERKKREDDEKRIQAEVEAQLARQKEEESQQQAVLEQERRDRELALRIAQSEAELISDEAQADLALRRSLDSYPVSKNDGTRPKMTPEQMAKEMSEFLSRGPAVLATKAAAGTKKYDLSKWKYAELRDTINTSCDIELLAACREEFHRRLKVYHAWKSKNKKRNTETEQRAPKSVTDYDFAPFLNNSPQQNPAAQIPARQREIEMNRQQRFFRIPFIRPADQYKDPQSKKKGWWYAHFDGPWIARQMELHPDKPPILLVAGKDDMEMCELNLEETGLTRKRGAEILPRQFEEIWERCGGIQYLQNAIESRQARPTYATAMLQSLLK
# Compound: ClCC(=O)N[C@@H]1CCCc2ccccc12
# Assay: log2 mean competition ratio of IA-DTB cysteine labelling (DMSO/compound) (log2 ratio); higher = stronger cysteine engagement by compound
# Conditions: 50 µM; treatment time: 4 h; cell line lysate: HEK293T
# Procedure: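 IA-DTB competitive cysteine chemoproteomics in HEK293T RIPA lysate. Lysates were treated with compound 29 or 30 at 50 or 200 µM for 4 h, then IA-DTB (500 µM, 1 h), trypsin-digested, NeutrAvidin-enriched and analysed by diaPASEF. Competition ratio = intensity DMSO / intensity compound (n=4 treated, n=64 DMSO); binding: mean log2 CR ≥ 1 and p ≤ 0.05 plus QC filters. Target is the cysteine site.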
row,Target,log2 mean competition ratio
1,MTREX C938 (UniProt P42285),-0.366
2,MTA1 C281 (UniProt Q13330),0.102
3,NADK C79 (UniProt O95544),0.303
4,MTCH2 C79,0.176
5,MTERF4 C76 (UniProt Q7Z6M4),-0.0685
6,NACC1 C464 (UniProt Q96RE7),-0.323
7,MTF1 C129 (UniProt Q14872),-0.0266
8,MSH3 C626 (UniProt P20585),0.299
9,MYO1D C97 (UniProt O94832),0.0828
10,NAA16 C259 (UniProt Q6N069),0.271
11,MTOR C674 (UniProt P42345),0.0767
12,MRPS6 C105 (UniProt P82932),-0.0796
13,MTG1 C113 (UniProt Q9BT17),-0.209
14,MSH6 C765 (UniProt P52701),-0.0971
15,MTFR1 C145 (UniProt Q15390),0.625
16,MYO1E C519 (UniProt Q12965),-0.245
17,MYO6 C790 (UniProt Q9UM54),0.508
18,MYH10 C1238 (UniProt P35580),-0.417
19,MTUS1 C492 (UniProt Q9ULD2),0.0811
20,MYBBP1A C338 (UniProt Q9BQG0),0.396

# Same assay, conditions: 200 µM; treatment time: 4 h; cell line lysate: HEK293T
row,Target,log2 mean competition ratio
1,MTREX C938 (UniProt P42285),0.141
2,MTA1 C281 (UniProt Q13330),-0.0594
3,NADK C79 (UniProt O95544),0.0298
4,MTCH2 C79,-0.179
5,MTERF4 C76 (UniProt Q7Z6M4),0.144
6,NACC1 C464 (UniProt Q96RE7),-0.373
7,MTF1 C129 (UniProt Q14872),-0.199
8,MSH3 C626 (UniProt P20585),0.0966
9,MYO1D C97 (UniProt O94832),-0.377
10,NAA16 C259 (UniProt Q6N069),-0.396
11,MTOR C674 (UniProt P42345),-0.0457
12,MRPS6 C105 (UniProt P82932),-0.289
13,MTG1 C113 (UniProt Q9BT17),0.134
14,MSH6 C765 (UniProt P52701),0.149
15,MTFR1 C145 (UniProt Q15390),0.271
16,MYO1E C519 (UniProt Q12965),0.244
17,MYO6 C790 (UniProt Q9UM54),0.339
18,MYH10 C1238 (UniProt P35580),-0.144
19,MTUS1 C492 (UniProt Q9ULD2),0.0884
20,MYBBP1A C338 (UniProt Q9BQG0),-0.17

# Reference: the supplement of paper PMC11732987, “Enantioselective OTUD7B fragment discovery through chemoproteomics screening and high-throughput optimisation” (Communications Chemistry, 2025)
